From PMC10289392 come the findings set out here.

The subject of series [1] is Trx-TaSAD (Triticum aestivum cv. Renan (B genome copy)). As to the kind of experiment: EMSA. To be noted: 20 fmol biotin-labelled dsDNA; 370 ng Trx-TaSAD, 500 ng Trx-WPBF, 625-2500 ng His-SPA; 100x/200x unlabelled competitor; recombinant protein; protein details: N-terminal thioredoxin and His6 (pET32-TEV); label: 3' biotin. For orientation: In EMSA bound probe runs differently from free probe, usually more slowly.

Series [2] concerns Trx-WPBF. As to the kind of experiment: EMSA. To be noted: 20 fmol biotin-labelled dsDNA; 370 ng Trx-TaSAD, 500 ng Trx-WPBF, 625-2500 ng His-SPA; 100x/200x unlabelled competitor; recombinant protein; protein details: N-terminal thioredoxin and His6 (pET32-TEV); label: 3' biotin.

Construct, isoform or probe ends are uncertain for at least one entry. Negatives hold for the conditions tested.

Regarding “GCCAGATGTTTCAGTTAG (double strand) [dof1]”, the binding result in series [1] and in series [2] was “no binding” throughout.
Take “CTCGGTTGTAGAATTTATACTA (double strand) [em2]”: the binding result in series [1] and in series [2] was “no binding” each time.
On to “GCATATTTGCGGAAGCAATGGC (double strand) [Pb3-like]”, for which the binding result in series [1] and in series [2] was “no binding” in each case.
“TTGTCACGGAGATGTGTTT (double strand) [dof2]”: the binding result in series [1] and in series [2] was “no binding” throughout.
As to “AGATAACAGGAACAGACCAAT (double strand) [dof3]”, the binding result in series [1] and in series [2] was “no binding” each time.
As for “CACACTTCTGCAAACAATACACCAG (double strand) [Pb2]”, the binding result in series [1] and in series [2] was “no binding” throughout.
With “AATCTGTTTTGCAAGCACCAAT (double strand) [Pb1-like]”, the binding result in series [1] and in series [2] was “no binding” each time.
Regarding “TGTGACATCTAAACTTAATAAGGTGA (double strand) [em1]”, the binding result in series [1] and in series [2] was “no binding” in each case.
